{"source": "the supplement of paper PMC6289059", "note": "Where “and” joins values, the source holds several entries; their conditions need not be identical. Equal values may be shown once. The list shows a part of the results. Single values are uncertain, as repeats are few or missing.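 The cells are hepatocyte-like cells grown from human stem cells in which the DGUOK gene was disrupted by CRISPR, a model of liver mtDNA depletion syndrome. Each well's ATP signal was scored against the other wells on its plate, and a drug counted as a primary hit when its score was 3 or higher.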"}
{"system": "DGUOK Δ14/Δ5 iPSC-derived hepatocyte-like cells (SV20)", "test": "ATP level (CellTiter-Glo luminescence) Z score relative to plate distribution, under 2-DG glycolysis block; higher = more cellular ATP (rescue of mitochondrial ATP production)", "conditions": "5 µM; treatment time: day 15 to day 20 of differentiation (5 days); 2-deoxy-D-glucose: 20 mM for 24 h before assay"}
{"smiles": "C=CC1=C(C)/C(=C/c2[nH]c(Cc3[nH]c(/C=C4\\NC(=O)C(C)=C4C=C)c(C)c3CCC(=O)O)c(CCC(=O)O)c2C)NC1=O", "ATP level": "inactive: 2.86"}
{"smiles": "Nc1nc(N)c2nc(-c3ccccc3)c(N)nc2n1", "ATP level": "inactive: 0.605"}
{"smiles": "C=C1CC[C@H](O)C/C1=C/C=C1\\CCC[C@]2(C)[C@@H]([C@H](C)/C=C/[C@H](C)C(C)C)CC[C@@H]12", "ATP level": "inactive: 2.81"}
{"smiles": "C[C@H](CC(=O)[C@@H]1OC1(C)C)[C@H]1C(=O)C[C@@]2(C)C3=CC[C@H]4C(C)(C)[C@@H](O[C@@H]5OC[C@@H](O)[C@H](O)[C@H]5O)CC[C@@]45C[C@@]35[C@@H](O)C[C@]12C", "ATP level": "inactive: 0.427"}
{"smiles": "CCCCOc1ccc(C(=O)CCN2CCCCC2)cc1", "ATP level": "inactive: -2.53"}
{"smiles": "COc1cccc(O)c1O", "ATP level": "inactive: 2.58"}
{"smiles": "C=C1C(=O)O[C@H]2[C@H]1CC/C(C)=C/CC[C@@]1(C)O[C@@H]21", "ATP level": "inactive: -4.78"}
{"smiles": "CN1[C@@H]2CC[C@H]1C[C@@H](OC(=O)C(O)c1ccccc1)C2", "note": "(some centres undefined)", "ATP level": "inactive: 1.54"}
{"smiles": "Cn1nnc2c(C(N)=O)ncn2c1=O", "ATP level": "inactive: 1.07"}
{"smiles": "COc1ccc(CCC(=O)c2c(O)cc(O[C@@H]3O[C@H](CO)[C@@H](O)[C@H](O)[C@H]3O[C@@H]3O[C@@H](C)[C@H](O)[C@@H](O)[C@H]3O)cc2O)cc1O", "ATP level": "inactive: 0.381"}
{"smiles": "CC(C)=CCC[C@@H](C)[C@@H]1CC[C@]2(C)C3=C(CC[C@@]12C)[C@@]1(C)CC[C@H](O)C(C)(C)[C@@H]1CC3", "ATP level": "inactive: -0.0807"}
{"smiles": "OC(CCN1CCCC1)(c1ccccc1)C1CCCCC1", "note": "(centres undefined)", "ATP level": "inactive: -4.58"}
{"smiles": "CC(=O)/C(=C\\c1ccccc1)CC(=O)O", "ATP level": "inactive: 1.6"}
{"smiles": "CC(CN(C)C)CN1c2ccccc2CCc2ccccc21", "note": "(centres undefined)", "ATP level": "inactive: 1.62"}
{"smiles": "C=C(C)[C@@H]1CC[C@]2(C)CC[C@]3(C)[C@H](CC[C@@H]4[C@@]5(C)CC[C@H](OC(C)=O)C(C)(C)[C@@H]5CC[C@]43C)[C@@H]12", "ATP level": "inactive: 2.04"}
{"smiles": "COC(=O)[C@H]1[C@H]2C[C@H]3c4[nH]c5ccccc5c4CCN3C[C@H]2CC[C@@H]1O", "ATP level": "inactive: -0.19"}
{"smiles": "CC1=C(/C=C/C(C)=C/C=C/C(C)=C/C=C/C=C(C)/C=C/C=C(C)/C=C/C(=O)[C@]2(C)C[C@@H](O)CC2(C)C)C(C)(C)C[C@H](O)C1", "ATP level": "inactive: 0.874"}
{"smiles": "C[C@H]1[C@H]2CC[C@H]3[C@@H]4CC=C5C[C@@H](N(C)C)CC[C@]5(C)[C@H]4CC[C@]23CN1C", "ATP level": "inactive: 0.218"}
{"smiles": "C[N+](C)(C)C[C@H](O)CC(=O)[O-]", "ATP level": "inactive: 1.87"}
{"smiles": "COc1ccc(-c2cc(=O)c3c(OC)cc(OC)cc3o2)cc1", "ATP level": "inactive: -2.2"}
{"smiles": "COC(=O)[C@@]1(C)CCC[C@]2(C)c3ccc(O)c(C(C)C)c3CCC12", "note": "(some centres undefined)", "ATP level": "inactive: 2.63"}
{"smiles": "O=C(O)CCCCCCCC(O)C(O)CCCCCCO", "note": "(centres undefined)", "ATP level": "inactive: 0.183"}
{"smiles": "CN(Cc1cc(Br)cc(Br)c1N)C1CCCCC1", "ATP level": "active: 5.76"}
{"smiles": "C[C@H](CS)C(=O)N1CCC[C@H]1C(=O)O", "ATP level": "inactive: 0.999"}
{"smiles": "CC1(C)O[C@@H]2C[C@H]3[C@@H]4C[C@H](F)C5=CC(=O)C=C[C@]5(C)[C@H]4[C@@H](O)C[C@]3(C)[C@]2(C(=O)CO)O1", "ATP level": "active: 3.92"}
{"smiles": "C[C@]12CCC(=O)C=C1CC[C@@H]1[C@@H]2[C@@H](O)C[C@@]2(C)[C@H]1CC[C@]2(O)C(=O)COP(=O)(O)O", "ATP level": "inactive: 2.77"}
{"smiles": "CC(=O)OCC(=O)[C@@]1(O)CC[C@H]2[C@@H]3CCC4=CC(=O)C=C[C@]4(C)[C@H]3[C@@H](O)C[C@@]21C", "ATP level": "inactive: 2.5"}
{"smiles": "O=C(Cc1ccccc1)NO", "ATP level": "inactive: -0.446"}
{"smiles": "CC[C@H](c1ccc(O)cc1)[C@@H](CC)c1ccc(O)cc1", "ATP level": "inactive: 1.62"}
{"smiles": "Cc1c(Nc2ncccc2C(=O)O)cccc1C(F)(F)F", "ATP level": "inactive: -0.346"}
{"smiles": "NNC(=O)c1ccncc1", "ATP level": "inactive: 0.764"}
{"smiles": "CC1=CCc2c(cc3oc(C)cc(=O)c3c2O)OC1", "ATP level": "inactive: 1.57"}
{"smiles": "CCC(=O)OCC(=O)[C@@]1(OC(=O)CC)[C@@H](C)C[C@H]2[C@@H]3CCC4=CC(=O)C=C[C@]4(C)[C@@]3(F)[C@@H](O)C[C@@]21C", "ATP level": "active: 5.95"}
{"smiles": "CC1(C)O[C@@H]2C[C@H]3[C@@H]4C[C@H](F)C5=CC(=O)CC[C@]5(C)[C@H]4[C@@H](O)C[C@]3(C)[C@]2(C(=O)CO)O1", "ATP level": "active: 3.09"}
{"smiles": "CC1(C)CC2C1CCC1(C)OC1CCC2(C)O", "note": "(centres undefined)", "ATP level": "inactive: -2.78"}
{"smiles": "CCCCc1oc2ccccc2c1C(=O)c1cc(I)c(OCCN(CC)CC)c(I)c1", "ATP level": "inactive: 1.27"}
{"smiles": "O=c1[nH]c(=O)n([C@H]2C[C@H](O)[C@@H](CO)O2)cc1I", "ATP level": "inactive: 2.15"}
{"smiles": "O=c1cccc2ccc(O)c(O)c2c1O", "ATP level": "inactive: -4.16"}
{"smiles": "Cc1cccc(N(C)C(=S)Oc2ccc3ccccc3c2)c1", "ATP level": "inactive: 0.219"}
{"smiles": "N[C@@H](COP(=O)(O)O)C(=O)O", "ATP level": "active: 3.29"}
{"smiles": "CCN1CCCC1CNC(=O)c1cc(S(N)(=O)=O)ccc1OC", "note": "(centres undefined)", "ATP level": "inactive: 1.37"}
{"smiles": "COc1ccc(-c2ccc3cc(C(=O)O)ccc3c2)cc1C12CC3CC(CC(C3)C1)C2", "ATP level": "inactive: -11.4"}
{"smiles": "O=C(O)c1cc2cc(F)ccc2[nH]1", "ATP level": "inactive: -0.586"}
{"smiles": "CC12CC3CC(C)(C1)CC(N)(C3)C2", "ATP level": "inactive: 0.305"}
{"smiles": "CN1C(C(=O)Nc2ccccn2)=C(O)c2sc(Cl)cc2S1(=O)=O", "ATP level": "inactive: 1.47"}
{"smiles": "CC(C)=CCc1c(O)cc2oc(C)cc(=O)c2c1O", "ATP level": "inactive: -0.165"}
{"smiles": "COc1ccc(-c2cc(=O)c3c(OC)c(OC)c(OC)c(OC)c3o2)cc1", "ATP level": "inactive: -0.452"}
{"smiles": "C#C[C@]1(O)CC[C@H]2[C@@H]3CCC4=Cc5oncc5C[C@]4(C)[C@H]3CC[C@@]21C", "ATP level": "inactive: 0.339"}
{"smiles": "Nc1ccc(S(=O)(=O)O)cc1.Nc1ccc(S(=O)(=O)O)cc1.[Zn]", "ATP level": "active: 9.42"}
{"smiles": "CS(C)(=O)=O", "ATP level": "inactive: -2.47"}
{"smiles": "O=C(Nc1ccc([N+](=O)[O-])cc1Cl)c1cc(Cl)ccc1O", "ATP level": "inactive: -36.8"}
{"smiles": "CCOc1ccc(Cc2nccc3cc(OCC)c(OCC)cc23)cc1OCC", "ATP level": "inactive: -4"}
{"smiles": "O=c1cc[nH]c(=O)[nH]1", "ATP level": "inactive: 1.26"}
{"smiles": "COc1ccc(-c2cc(=O)c3c(OC)c(OC)c(OC)c(OC)c3o2)cc1OC", "ATP level": "inactive: -5.39"}
{"smiles": "CCCCC(CC)COc1ccc(-c2nc(-c3ccc(OC)cc3)nc(-c3ccc(OCC(CC)CCCC)cc3O)n2)c(O)c1", "note": "(centres undefined)", "ATP level": "inactive: 1.43"}
{"smiles": "CC/C=C\\C/C=C\\C/C=C\\C/C=C\\C/C=C\\C/C=C\\CCC(=O)O", "ATP level": "inactive: -0.851"}
{"smiles": "C=C1C(N)CC2CC1C2(C)C", "note": "(stereo not drawn) [3-AMINO-beta-PINENE]", "ATP level": "inactive: -1.54"}
{"smiles": "CCC[C@@H]1C[C@@H](C(=O)N[C@@H]([C@H]2O[C@H](SC)[C@H](O)[C@@H](O)[C@H]2O)[C@@H](C)O)N(C)C1", "ATP level": "inactive: 0.927"}
{"smiles": "CN1CCCN=C1/C=C/c1cccs1", "ATP level": "inactive: 0.427"}
{"smiles": "CCN(CC)CCNC(=O)c1cc(Br)c(N)cc1OC", "ATP level": "inactive: -2.96"}
{"smiles": "CCCCC(=O)N(Cc1ccc(-c2ccccc2-c2nnn[nH]2)cc1)[C@H](C(=O)O)C(C)C", "ATP level": "inactive: -1.03"}
{"smiles": "C[C@H]1C(=O)CC[C@@H]2[C@]1(C)CC[C@H]1[C@@]2(C)CC[C@@]2(C)[C@@H]3CC(C)(C)CC[C@]3(C)CC[C@]12C", "ATP level": "inactive: -0.112"}
{"smiles": "OC(CCN1CCCCC1)(c1ccccc1)c1ccccc1", "ATP level": "inactive: -2.14"}
{"smiles": "O=C(O)c1cc(=O)c2ccccc2[nH]1", "ATP level": "inactive: -2.94"}
{"smiles": "CC(C)NNC(=O)c1ccncc1", "ATP level": "inactive: 0.798"}
{"smiles": "CSCC[C@H](NC(=O)[C@H](Cc1c[nH]c2ccccc12)NC(=O)CCNC(=O)OC(C)(C)C)C(=O)N[C@@H](CC(=O)O)C(=O)N[C@@H](Cc1ccccc1)C(N)=O", "ATP level": "active: 4.56"}
{"smiles": "O=C1c2cccc(O)c2C(=O)c2c(O)cccc21", "ATP level": "inactive: -1.22"}
{"smiles": "CCOC(N)=O", "ATP level": "inactive: -24.7"}
{"smiles": "COc1ccc(-c2coc3cc(O)ccc3c2=O)c(OC)c1", "ATP level": "inactive: -2.77"}
{"smiles": "C[C@H]1[C@H](C)CC[C@]2(C(=O)O)CC[C@]3(C)C(=CC[C@@H]4[C@@]5(C)C[C@@H](O)[C@H](O)[C@@](C)(CO)[C@@H]5[C@H](O)C[C@]43C)[C@H]12", "ATP level": "inactive: 1.49"}
{"smiles": "O=C(O)CCC(=O)c1ccc(-c2ccccc2)cc1", "ATP level": "inactive: 1.65"}
{"smiles": "CN1CCN2c3ccccc3Cc3ccccc3C2C1", "note": "(centres undefined)", "ATP level": "inactive: -10.6"}
{"smiles": "CCC(C)C(NC)C(=O)O", "note": "(centres undefined)", "ATP level": "inactive: -0.174"}
{"smiles": "N[C@@H](Cc1ccc(O)c(O)c1)C(=O)O", "ATP level": "inactive: 2.35"}
{"smiles": "CN(C)CCc1c[nH]c2ccc(CS(=O)(=O)N3CCCC3)cc12", "ATP level": "inactive: -0.217"}
{"smiles": "CC(=O)O[C@H]1CC[C@@]2(C)C(=CC=C3[C@@H]4CC[C@H]([C@H](C)/C=C/[C@H](C)C(C)C)[C@@]4(C)CC[C@@H]32)C1", "ATP level": "inactive: 0.597"}
{"smiles": "COc1cc(O)cc(OC)c1OC", "ATP level": "inactive: 0.785"}
{"smiles": "O=C(NC(Cc1cc(=O)[nH]c2ccccc12)C(=O)O)c1ccc(Cl)cc1", "note": "(centres undefined)", "ATP level": "inactive: 0.912"}
{"smiles": "CC(C)(C)NC[C@H](O)COc1cccc2c1CCCC2=O", "ATP level": "inactive: -1.48"}
{"smiles": "C[N+](C)(C)CCOC(N)=O", "ATP level": "inactive: -0.669"}
{"smiles": "COC(=O)[C@H]1[C@H]2C[C@H]3c4[nH]c5cc(OC)ccc5c4CCN3C[C@H]2C[C@@H](OC(=O)c2cc(OC)c(OC)c(OC)c2)[C@@H]1OC", "ATP level": "inactive: -2.64"}
{"smiles": "COC(=O)/C=C/C(=O)OC", "ATP level": "active: 3.36"}
{"smiles": "C[C@H](CCC(=O)O)[C@H]1CC[C@H]2[C@@H]3C(=O)C[C@@H]4CC(=O)CC[C@]4(C)[C@H]3CC(=O)[C@]12C", "ATP level": "inactive: 1.4 and inactive: 1.13"}
{"smiles": "CO[C@H]1C[C@H](O[C@@H]2/C(C)=C/C[C@@H]3C[C@@H](C[C@]4(CC[C@H](C)[C@@H](C5CCCCC5)O4)O3)OC(=O)[C@@H]3C=C(C)/C(=N/O)[C@H]4OC/C(=C\\C=C\\[C@@H]2C)[C@]43O)O[C@@H](C)[C@@H]1O", "ATP level": "inactive: -12.1"}
